Source: the supplement of paper PMC7877785
± gives the uncertainty stated by the source. Many entries were measured with a wide error.

Assay: self-splicing fitness, log relative to wild type (ln ratio); higher = more splicing; Tetrahymena group I intron in knt gene, E. coli kanamycin selection, DiMSum; sequences stand for … in CUCUCU…GGAGGGAAAAGUUAUCAGGCAUGCACCUGGUAGCUAGUCUUUAAACCAAUAGAUUGCAUCGGUUUAAAAGGCAAGACCGUCAAAUUGCGGGAAAGGGGUCAACAGCCGUUCAGUACCAAGUCUCAGGGGAAACUUUGAGAUGGCCUUGCAAAGGGUAUGGUAAUAAGCUGACGGACAUGGUCCUAACCACGCAGCCAAGUCCUAAGUCAACAGAUCUUCUGUUGAUAUGGAUGCAGUUCACAGACUAAAUGUCGGUCGGGGAAGAUGUAUUCUUCUCAUAAGAUAUAGUCGGACCUCUCCUUAAUGGGAGCUAGCGGAUGAAGUGAUGCAACACUGGAGCCGCUGGGAACUAAUUUGUAUGCGAAAGUAUAUUGAUUAGUUUUGGAGUACUCGUGGUCG
How it was run: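 The eight P1ex-region nucleotides of an intron in the knt kanamycin-resistance gene on pET-22b(+) were all randomised and the library put into E. coli BL21(DE3). Six replicate transformations were grown overnight at 37°C or 30°C on LB agar with or without 25 μg/mL kanamycin, together with 100 μg/mL carbenicillin, 50 μM IPTG and 0.2% rhamnose. Colonies were pooled and amplicon-sequenced on an Illumina HiSeq 2500. Fitness from DiMSum is the error-weighted combination of wild-type-normalised replicate fold changes, kanamycin over none.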

Sequence | self-splicing fitness (ln) (30 °C) | self-splicing fitness (ln) (37 °C)
CGGUAGCAAUAUUACGCGUA | -0.576 ± 0.59 | -2.76 ± 0.76
GUAGAGCAAUAUUACGCCCU | -0.327 ± 0.66 | 0.319 ± 0.7
UCAUAGCAAUAUUACGACUU | -3.87 ± 0.28 | -2.42 ± 0.39
UCAGAGCAAUAUUACGAUCC | – | -1.15 ± 0.63
UAGGAGCAAUAUUACGUGAC | – | -2.57 ± 0.51
CUCUAGCAAUAUUACGAAGA | -3.76 ± 0.64 | –
CUAGAGCAAUAUUACGGCCC | -3.76 ± 0.53 | -3.11 ± 0.6
UGGUAGCAAUAUUACGCAUC | -3.09 ± 0.53 | –
CCUGAGCAAUAUUACGAGUU | – | -3.8 ± 0.51
GAGGAGCAAUAUUACGGCAG | -2.79 ± 0.71 | –
CCAGAGCAAUAUUACGGCCA | -1.45 ± 0.56 | 0.0981 ± 1.2
UUGUAGCAAUAUUACGAGCG | -1.01 ± 0.14 | -0.454 ± 0.28
AUACAGCAAUAUUACGCGGC | – | -2.69 ± 0.61
GUGGAGCAAUAUUACGAGGC | -4.25 ± 0.73 | –
GCGAAGCAAUAUUACGCAGU | -3.19 ± 1.2 | -2.39 ± 1.1
GCAAAGCAAUAUUACGCGUA | -0.985 ± 0.075 | -0.362 ± 0.071
CUUUAGCAAUAUUACGCAGC | -4.38 ± 0.72 | –
CCCAAGCAAUAUUACGAUCC | -4.89 ± 0.58 | –
GUGUAGCAAUAUUACGCCAA | -3.71 ± 0.75 | –
UUGUAGCAAUAUUACGCCUC | – | -2.39 ± 1.1
CUUGAGCAAUAUUACGAAUG | -1.23 ± 0.12 | -0.596 ± 0.19
GCAGAGCAAUAUUACGAAGA | – | -2.03 ± 0.5
GGUUAGCAAUAUUACGCACC | -3.51 ± 0.53 | -2.99 ± 1
UUGUAGCAAUAUUACGUCCC | -2.32 ± 0.67 | –
CUUAAGCAAUAUUACGGUCC | – | -1.95 ± 0.52

Shown as a markdown table: entries from further up.

| Sequence | self-splicing fitness (ln) (30 °C) | self-splicing fitness (ln) (37 °C) |
| --- | --- | --- |
| GUAGAGCAAUAUUACGCCCU | -0.327 ± 0.66 | 0.319 ± 0.7 |
| UAGGAGCAAUAUUACGUGAC | – | -2.57 ± 0.51 |
| CUCUAGCAAUAUUACGAAGA | -3.76 ± 0.64 | – |
| UGGUAGCAAUAUUACGCAUC | -3.09 ± 0.53 | – |
| CCUGAGCAAUAUUACGAGUU | – | -3.8 ± 0.51 |
| GAGGAGCAAUAUUACGGCAG | -2.79 ± 0.71 | – |
| CCAGAGCAAUAUUACGGCCA | -1.45 ± 0.56 | 0.0981 ± 1.2 |
| UUGUAGCAAUAUUACGAGCG | -1.01 ± 0.14 | -0.454 ± 0.28 |
| GUGGAGCAAUAUUACGAGGC | -4.25 ± 0.73 | – |
| GUGUAGCAAUAUUACGCCAA | -3.71 ± 0.75 | – |
| UUGUAGCAAUAUUACGCCUC | – | -2.39 ± 1.1 |
| GGUUAGCAAUAUUACGCACC | -3.51 ± 0.53 | -2.99 ± 1 |

(continued)

Sequence | self-splicing fitness (ln) (30 °C) | self-splicing fitness (ln) (37 °C)
UUGGAGCAAUAUUACGAGGU | – | -2.56 ± 0.75
UUUGAGCAAUAUUACGCUGU | – | -2.1 ± 0.58
GUCUAGCAAUAUUACGGGGC | -3.31 ± 0.74 | -2.34 ± 0.36
GAAGAGCAAUAUUACGACGA | -1.32 ± 1.4 | –
CCUGAGCAAUAUUACGGGGC | – | -3.77 ± 0.51
CGAGAGCAAUAUUACGUUAA | – | -2.57 ± 0.54
UUUGAGCAAUAUUACGCUGA | – | -1.68 ± 0.53
GCUGAGCAAUAUUACGAAAA | 0.636 ± 0.78 | –
CUCUAGCAAUAUUACGCCCG | -1.89 ± 0.55 | –
CCAAAGCAAUAUUACGGGUC | -4.39 ± 0.23 | -3.1 ± 0.22
GGGGAGCAAUAUUACGGUCC | – | -1.84 ± 0.57
GACAAGCAAUAUUACGCCCC | -3.03 ± 1.1 | 0.0981 ± 1.2
GCGGAGCAAUAUUACGCAGA | -4.93 ± 1 | -3.26 ± 1
ACAGAGCAAUAUUACGACAA | -4.72 ± 0.51 | –
UUCUAGCAAUAUUACGGAGC | – | -4.71 ± 0.72
UCCGAGCAAUAUUACGCCGC | -3 ± 0.62 | –
UGGGAGCAAUAUUACGGUUC | -3.42 ± 0.73 | –
CAGAAGCAAUAUUACGCCCC | -2.56 ± 0.65 | -1.47 ± 1.2
CAUUAGCAAUAUUACGCAGC | -4.26 ± 0.73 | -3.08 ± 0.74
ACCGAGCAAUAUUACGCAUC | – | -2.28 ± 0.56
UCGGAGCAAUAUUACGAAAG | -4.13 ± 0.76 | –
GUUGAGCAAUAUUACGGGUA | – | -4.4 ± 1
CGAGAGCAAUAUUACGUGCU | – | -3.7 ± 0.51
CGUGAGCAAUAUUACGUUUA | – | -2.95 ± 0.53
UUUUAGCAAUAUUACGCUCA | -0.731 ± 0.29 | 0.849 ± 0.44
